# Reference: PubChem BioAssay AID504744 (Drosophila RNAi Screening Center, 2011)
# Assay: 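Find genes whose loss alters insulin-driven dAkt phosphorylation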 (primary screen)
# Cell system: Drosophila Kc167 cells
# Knock-down reagent: long dsRNA against Drosophila genes, 250 ng dsRNA per well of a 384-well plate
# Duration: 3 days of knock-down, then overnight serum-free starvation before stimulation
# Challenge: bovine insulin at 387 nM for 10 minutes after 12 h without serum
# Measurement: 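Per-well phospho-dAkt level from an in-cell fluorescent antibody stain, divided by a DNA-dye signal; log2 residuals turned into z-scores that take cell number into account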
# Rule for the call: 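Under insulin, a gene counts as a hit if the average z-score of two replicates lies above 2.5 or below -2.5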
# The screen tested about 23,000 reagents; shown is an unselected part of those that have a named target and a result. Over the whole deposit, 98 (0.43%) were called active. 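Only hit calls are given; the phospho-dAkt signals, z-scores and hit direction were not deposited.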 Reagents against one gene are numbered here. A plus sign joins genes that one reagent is predicted to hit. No sequences are given here.
Target gene,reagent,Call
CG14054,1,inactive
ORY (Occludin-Related Y),1,inactive
CG17261,1,inactive
CG13707,1,inactive
CG7884,1,inactive
Teh4 (tipE homolog 4),1,inactive
Taf4 (TBP-associated factor 4),1,inactive
ATP8A (ATPase 8A),1,inactive
ATP8A (ATPase 8A),2,inactive
ATP8A (ATPase 8A),3,inactive
EMC5 (ER membrane protein complex subunit 5),1,inactive
Hip14 (Huntingtin-interacting protein 14),1,inactive
CG32219,1,inactive
CG41020 (retired record),1,inactive
Ppat-Dpck,1,inactive
Coq6 (Coenzyme Q6),1,inactive
CG8997,1,inactive
CG7054,1,inactive
TfAP-2 (Transcription factor AP-2),1,inactive
Flad2 (Flavin adenine dinucleotide synthetase 2),1,inactive
CG12831,1,inactive
mRF1 (mitochondrial translation release factor 1),1,inactive
CG16758,1,inactive
CG16758,2,inactive
toe (twin of eyg),1,inactive
toe (twin of eyg),2,inactive
aralar1,1,inactive
aralar1,2,inactive
CG15449,1,inactive
Cyp312a1 (Cytochrome P450 312a1),1,inactive
mam (mastermind),1,inactive
mam (mastermind),2,inactive
CG15385,1,inactive
verm (vermiform),1,inactive
drm (drumstick),1,inactive
CG1791,1,inactive
Snp (Snipper),1,inactive
Snp (Snipper),2,inactive
mei-217 + mei-218,1,inactive
por (porcupine),1,inactive
CG33981 + fab1,1,inactive
Ald2 (Aldolase 2),1,inactive
CG6749,1,inactive
Cyp4e3 (Cytochrome P450 4e3),1,inactive
CAH2 (Carbonic anhydrase 2),1,inactive
CG1640,1,inactive
betaggt-I (beta subunit of type I geranylgeranyl transferase),1,inactive
His2B:CG33870 + His2B:CG33868 + His2B:CG33882 + 21 more,1,inactive
eRF1 (eukaryotic translation release factor 1),1,inactive
Pde8 (Phosphodiesterase 8),1,inactive
ssp3 (short spindle 3),1,inactive
ssp3 (short spindle 3),2,inactive
CG13437,1,inactive
Tmx3 (Thioredoxin-related transmembrane protein 3),1,inactive
Vm32E (Vitelline membrane 32E),1,inactive
CG14892,1,inactive
CG11449,1,inactive
Or49a (Odorant receptor 49a),1,inactive

In a second layout: entries from further up.
{"Target gene":"Snp (Snipper)","reagent":2,"Call":"inactive"}
{"Target gene":"mei-217 + mei-218","reagent":1,"Call":"inactive"}
{"Target gene":"por (porcupine)","reagent":1,"Call":"inactive"}
{"Target gene":"CG33981 + fab1","reagent":1,"Call":"inactive"}
{"Target gene":"Ald2 (Aldolase 2)","reagent":1,"Call":"inactive"}
{"Target gene":"CG6749","reagent":1,"Call":"inactive"}
{"Target gene":"Cyp4e3 (Cytochrome P450 4e3)","reagent":1,"Call":"inactive"}
{"Target gene":"CAH2 (Carbonic anhydrase 2)","reagent":1,"Call":"inactive"}
{"Target gene":"CG1640","reagent":1,"Call":"inactive"}
{"Target gene":"betaggt-I (beta subunit of type I geranylgeranyl transferase)","reagent":1,"Call":"inactive"}
{"Target gene":"His2B:CG33870 + His2B:CG33868 + His2B:CG33882 + 21 more","reagent":1,"Call":"inactive"}
{"Target gene":"eRF1 (eukaryotic translation release factor 1)","reagent":1,"Call":"inactive"}
{"Target gene":"Pde8 (Phosphodiesterase 8)","reagent":1,"Call":"inactive"}
{"Target gene":"ssp3 (short spindle 3)","reagent":1,"Call":"inactive"}
{"Target gene":"ssp3 (short spindle 3)","reagent":2,"Call":"inactive"}
{"Target gene":"CG13437","reagent":1,"Call":"inactive"}
{"Target gene":"Tmx3 (Thioredoxin-related transmembrane protein 3)","reagent":1,"Call":"inactive"}

The list goes on.
Target gene,reagent,Call
eEF5 (eukaryotic translation elongation factor 5),1,inactive
"AlaRS-m (Alanyl-tRNA synthetase, mitochondrial)",1,inactive
Cyp1 (Cyclophilin 1),1,inactive
ich (ichor),1,inactive
ich (ichor),2,inactive
"SmydA-9 (SET and MYND domain containing, arthropod-specific, member 9)",1,inactive
CG10038,1,inactive
Cyp4d21 (Cytochrome P450 4d21),1,inactive
"Gos28 (Golgi SNARE, 28 kDa)",1,inactive
"Gos28 (Golgi SNARE, 28 kDa)",2,inactive
CheA29a (Chemosensory protein A 29a),1,inactive
Rca1 (Regulator of cyclin A1),1,inactive
CG42374 + Mettl5,1,inactive
zetaCOP (Coat Protein (coatomer) zeta),1,active
CG6654,1,inactive
RpS26 (Ribosomal protein S26),1,inactive
x16 (x16 splicing factor),1,inactive
x16 (x16 splicing factor),2,inactive
CG18088,1,inactive
nac (neuronally altered carbohydrate),1,inactive
jhamt (juvenile hormone acid methyltransferase),1,inactive
Wsck,1,inactive
CG40485,1,inactive
resilin,1,inactive
resilin,2,inactive
AANATL7 (Arylalkylamine N-acetyltransferase-like 7),1,inactive
CG17109,1,inactive
CG6836,1,inactive
CG18577,1,inactive
Ostgamma (Oligosaccharide transferase gamma subunit),1,inactive
bgm (bubblegum),1,inactive
CR18228 (pseudo),1,inactive
cta (concertina),1,inactive
bard,1,inactive
BORCS7 + CG13430,1,inactive
BORCS7 + CG13430,2,inactive
Gr5a (Gustatory receptor 5a),1,inactive
Rox8,1,inactive
FoxP (Forkhead box P),1,inactive
FoxP (Forkhead box P),2,inactive
CG4250,1,inactive
Asph (Aspartyl beta-hydroxylase),1,inactive
Asph (Aspartyl beta-hydroxylase),2,inactive
CG33969,1,inactive
CG13907,1,inactive
CG5225,1,inactive
CG13144,1,inactive
CG31805,1,inactive
AttD (Attacin-D),1,inactive
